Experimental data: PubChem BioAssay AID624297 (National Center for Advancing Translational Sciences (NCATS), 2012)
Screen size: about 340,000 compounds; about 6,200 (1.8%) were called active. Inconclusive results, whose numbers are uncertain, are shown with a selection of clear calls. The call rests on the fitted dose curve; in most records, active means well fitted activation curve with a large enough effect; inconclusive means small, poorly fitted or top-dose-only effect; inactive means no such curve, though single readings can be large or run the other way. A potency beside an inconclusive call is a rough fit, not a confirmed value.

assay: A quantitative high throughput screen for small molecules that induce DNA re-replication in SW480 colon adenocarcinoma cells.; further: nearly all actives have a fitted effect of over 55% in size; on re-replication activation: % of control where 0% means no effect; details: Hoechst DNA content imaging, 48 h; re-replication activation: at 46.1 µM (top of the series) unless noted
Summary of the method: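 250 cells/well; 23 nL cpd via pin tool; 48 hr, 37 C, 5% CO2; Hoechst 40 min; imager read of total nuclear intensity, ex 405/em 500-530 nm.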
Potency means the concentration at half of the fitted maximal effect.

| SMILES | Potency | re-replication activation |
| --- | --- | --- |
| O=c1oc2ccccc2n1CCn1c2ccccc2c2nc3ccccc3nc21 | inconclusive: 29.1 µM [activator, partial curve, poor fit] | – |
| O=C(Nc1nccs1)c1cc([N+](=O)[O-])ccc1Cl | inconclusive: 13 µM [activator, partial curve] | – |
| CCC(C)NC(=O)c1ccc2nc(-c3ccc(OC)c(OC)c3)c(-c3ccc(OC)c(OC)c3)nc2c1 (stereo not given) | inconclusive: 29.1 µM [activator, single point] | – |
| COc1ccccc1N1CCN(C(=O)c2cc(=O)c3c(C)cc(C)cc3o2)CC1 | inconclusive: 1.3 µM [activator, partial curve, poor fit] | – |
| Cc1ccc(C)c(NC(=O)c2cc(-c3ccccc3O)n[nH]2)c1 | inconclusive: 29.1 µM [activator, single point] | – |
| Cn1c2ccccc2c(=O)c2ccc(C#Cc3ccc(N)cc3)cc21 | active: 14.6 µM | – |
| NC(=S)N/N=C/c1ccccc1OCc1cccc(Cl)c1 | inconclusive: 29.1 µM [activator, single point] | – |
| CCN(CC)CCNC(=O)C1CCN(S(=O)(=O)c2c(C)noc2/C=C/c2ccccc2F)CC1 | inconclusive: 29.1 µM [activator, single point] | – |
| CCN(CC)c1ccc2cc(-c3nnc(-c4ccncc4)o3)c(=O)oc2c1 | – | inactive: 1.81% |
| CCC/C=N/NC(=O)c1[nH]c2c([N+](=O)[O-])cccc2c1C | active: 18.4 µM | – |
| COC(=O)c1ccc(COC(=O)CCc2nc(-c3ccccc3)c(-c3ccccc3)o2)cc1 | – | inactive: 0.258% |
| COc1ccc(COC(=O)C2=C(C)NC(=O)NC2c2ccc(OC)cc2)cc1 (stereo not given) | inconclusive: 14.6 µM [activator, single point] | – |
| COC(=O)C1=NN(c2ccccc2OC)C2C(=O)N(c3ccccc3OC)C(=O)C12 (stereo not given) | inconclusive: 13 µM [activator, partial curve, poor fit] | – |
| CNC(=O)CSc1nc2nc(C)cc(C)n2n1 | inconclusive: 23.1 µM [activator, partial curve, poor fit] | – |
| O=C(Nc1cccnc1)c1ccc(COc2ccccc2Br)cc1 | inconclusive: 25.9 µM [activator, single point] | – |
| Cc1ccc(C(=O)Sc2cccccc2=O)cc1 | inconclusive: 20.6 µM [activator, partial curve, poor fit] | – |
| NC/C=C/C(=O)O | – | inactive: -0.968% |
| Cc1cc(Oc2nc3ccccn3c(=O)c2/C=C(\C#N)C(=O)NC2CCS(=O)(=O)C2)ccc1Cl (stereo not given) | inconclusive: 20.6 µM [activator, single point] | – |
| CCN(CC)c1ccc(NC(=O)Nc2cccc(C(C)=O)c2)cc1 | inconclusive: 0.164 µM [activator, full curve, poor fit] | – |
| O=C1C=CC(=O)N1c1ccc2ccccc2c1 | inconclusive: 23.1 µM [activator, single point] | – |
| CCOC(=O)c1c(NC(=O)c2nn(CC)cc2Br)sc2c1CCCCC2 | – | inactive: -3.52% |
| O=C(NCc1ccccn1)c1c(-c2ccccc2)sc2ccccc12 | – | inactive: 1.13% |
| Cc1cccc(N2CCN(C(=O)Cc3cn(C)c4ccccc34)CC2)c1C | inconclusive: 23.1 µM [activator, single point] | – |
| CCC(=O)N1CCc2cc(S(=O)(=O)CCC(=O)N3CCN(c4ccc(F)cc4)CC3)ccc21 | inconclusive: 29.1 µM [activator, single point] | – |

Complete entries from above. Order of values: Potency	re-replication activation
`Cc1cccc(N2CCN(C(=O)Cc3cn(C)c4ccccc34)CC2)c1C` as listed: inconclusive: 23.1 µM [activator, single point]	–
`COC(=O)c1ccc(COC(=O)CCc2nc(-c3ccccc3)c(-c3ccccc3)o2)cc1` as listed: –	inactive: 0.258%

(more compounds)

| SMILES | Potency | re-replication activation |
| --- | --- | --- |
| COc1ccc(-c2cc3nc(-c4ccccc4)cc(N4CCCC(O)C4)n3n2)cc1 (stereo not given) | inconclusive: 29.1 µM [activator, single point] | – |
| CC(=O)Nc1ccc(S(=O)(=O)NC2CCSc3ccccc32)cc1 (stereo not given) | inconclusive: 29.1 µM [activator, single point] | – |
| COC(=O)c1ccc(CNC(=O)[C@@H]2CCCN2S(=O)(=O)c2ccccc2F)cc1 | inconclusive: 3.26 µM [activator, single point] | – |
| Cc1nc2c(c(=O)c3ccccc3n2C)c(=O)n1-c1ccc(F)cc1 | inconclusive: 3.66 µM [activator, full curve, poor fit] | – |
| Cc1ccc(S(=O)(=O)N2CCN(C(=O)COC(=O)Cc3c(F)cccc3Cl)CC2)c(C)c1 | – | inactive: 8.9% |
| Brc1cc(-c2ccccc2)nc(-c2ccccc2)n1 | – | inactive: 9.34% |
| Cc1ccc(C(=O)NCCc2ccccc2)cc1 | inconclusive: 29.1 µM [activator, single point] | – |
| O=C(NC(=S)Nc1nc(-c2ccccc2)cs1)c1cccnc1 | – | inactive: -5.7% |
| CC(=O)c1c(C)nc(-c2ccc(OCC(=O)Nc3cccc(C)c3C)cc2)n1O | – | inactive: 9.76% |
| CCOc1ccc(-c2nnn(CC#N)n2)cc1OC | inconclusive: 23.1 µM [activator, single point] | – |
| C#CC[N+](C)(C)CCCCCCCCC | inconclusive: 23.1 µM [activator, single point] | – |
| CCCCCCCCCc1nc2sc3c(c2c(=O)n1NC(=O)c1ccc([N+](=O)[O-])cc1)CC(C)(C)OC3 | – | inactive: 9.25% |
| COc1cccc(N2CC(O)=C(c3nc4ccccc4c(=O)[nH]3)C2=N)c1 | – | inactive: -6.05% |
| CC(C)N(Cc1ccccc1)C(=O)CN1C(=O)NC2(CCCCCC2)C1=O | – | inactive: -2.38% |
| COCc1c(C(=O)Nc2ccc3nc(N4CCOCC4)sc3c2)oc2ccccc12 | inconclusive: 4.47 µM [activator, full curve, poor fit] | – |
| COc1cc2c(cc1OC)C(C)N(C(=O)Nc1ccc(F)cc1)CC2 (stereo not given) | inconclusive: 23.1 µM [activator, single point] | – |
| CCCOc1c(OC)cccc1C1CC(=O)Nc2cc3c(cc21)OCO3 (stereo not given) | active: 16.4 µM | – |
| Cc1cccc(C)c1OCc1cc(C(=O)N2CCCC2c2nonc2C)no1 (stereo not given) | inconclusive: 29.1 µM [activator, single point] | – |
| Cc1cc(C)cc(NC(=S)NC2CC3CCCC(C2)N3C2CCCC2)c1 (stereo not given) | – | inactive: 17% |
| Cc1nc2scc(C)n2c(=O)c1S(=O)(=O)NCc1ccc(F)cc1 | – | inactive: -5.35% |
| O=C(Nc1ccc(Cl)c(Cl)c1)c1ccc(Cl)c(Cl)c1 | – | inactive: -0.0233% |
| CCCC(c1nnnn1C(C)(C)CC)N(CCCO)Cc1cc2cc(C)cc(C)c2[nH]c1=O (stereo not given) | inconclusive: 29.1 µM [activator, partial curve, poor fit] | – |
| O=C(CNCCC1=CCCCC1)Nc1ccccc1N1CCCCC1 | – | inactive: -3.33% |
| COc1ccc(C(=O)OCc2cc(=O)n3ccsc3n2)cc1F | – | inactive: -5.06% |

A few values from the results shown.
`O=C(CNCCC1=CCCCC1)Nc1ccccc1N1CCCCC1` | re-replication activation: inactive: -3.33%
`CCOc1ccc(-c2nnn(CC#N)n2)cc1OC` | Potency: inconclusive: 23.1 µM [activator, single point]
`O=C(NC(=S)Nc1nc(-c2ccccc2)cs1)c1cccnc1` | re-replication activation: inactive: -5.7%

Next records:

| SMILES | Potency | re-replication activation |
| --- | --- | --- |
| CCn1nc(C(=O)OC(C(=O)c2c[nH]c3ccccc23)c2ccccc2)c2ccccc2c1=O (stereo not given) | – | inactive: 15.1% |
| COc1ccc(NC(=O)CSc2nc3c(sc4ccccc43)c(=O)n2CCCN2CCCC2)cc1 | inconclusive: 29.1 µM [activator, single point] | – |
| COc1ccc(P(=O)(COc2ccc([N+](=O)[O-])cc2)c2ccc(OC)cc2)cc1 | – | inactive: 1.48% |
| CCOc1ccc(NC(=O)C(CC(=O)O)Cc2ccc(C)cc2)cc1 (stereo not given) | – | inactive: -1.76% |
| Oc1ccc(N=Cc2ccc(-c3cccs3)s2)cc1 | inconclusive: 3.26 µM [activator, full curve] | – |
| COC(=O)c1ccc(C23CC4(C2)[C@H](CN(CC2CCCCC2)[C@@H]4c2ccccc2)C3c2ccc(Cl)nc2)cc1 (stereo not given in full) | inconclusive: 29.1 µM [activator, single point] | – |
| Cc1ccc2c(c1)C(=O)C(=O)N2CC1COc2ccccc2O1 (stereo not given) | active: 23.1 µM | – |
| O=c1[nH]c2ccc(S(=O)(=O)Nc3ccc(Cl)cc3)cc2[nH]1 | – | inconclusive: 28.4% [activator] |
| COc1ccc(C(=O)C[N+]2(C)CCOCC2)cc1 | – | inconclusive: 52.3% [activator] |
| Oc1ccc(Cl)cc1-c1cc(C(F)(F)C(F)F)nc(-c2ccccc2)n1 | inconclusive: 5.17 µM [activator, full curve, poor fit] | – |
| CC1(c2ccccc2)NC(=O)N(CC(=O)NCc2cccc(Cl)c2)C1=O (stereo not given) | inconclusive: 0.206 µM [activator, full curve, poor fit] | – |
| COc1cc(C(=O)NCCOc2ccccc2C)c(Br)c(OC)c1OC | – | inactive: -7.46% |
| C/C(=N\Nc1ccccn1)c1ccc(OC(F)F)cc1 | inconclusive: 23.1 µM [activator, partial curve, poor fit] | – |
| COC(=O)c1ccc(/C=C/C(=O)OCC(=O)Nc2sccc2C(N)=O)cc1 | – | inactive: 0.585% |
| Cc1cccc(NC(=O)C(=O)NNC(=O)c2ccc(C(C)(C)C)cc2)c1 | inconclusive: 1.64 µM [activator, partial curve, poor fit] | – |
| COc1cccc(NC(=O)CCC2CCN(C(=O)C3CC=CCC3)CC2)c1 (stereo not given) | inconclusive: 0.146 µM [activator, full curve, poor fit] | – |
| O=C(CSc1nnc(-c2ccc(O)cc2)n1Cc1ccco1)N1CCc2ccccc2C1 | – | inactive: -3.89% |
| COc1cc(CN2CCC(C(=O)N3CCN(c4ccccc4F)CC3)CC2)cc(OC)c1OC | inconclusive: 23.1 µM [activator, single point] | – |
| COc1cccc(NC(=O)CN(C)C(=O)c2cccc(S(=O)(=O)Nc3ccc(C)cc3)c2)c1 | inconclusive: 1.84 µM [activator, single point] | – |
| CCCc1cc2c(=O)c(-c3nc4ccccc4s3)c(COCC(=O)O)oc2cc1O | inconclusive: 29.1 µM [activator, single point] | – |
| CCc1ccc2oc(C(=O)N3CCN(c4ccccc4OC)CC3)cc(=O)c2c1 | inconclusive: 20.6 µM [activator, single point] | – |
| CC(C)C[C@H](NC(=O)c1nc[nH]c1C(=O)N[C@@H](CCCCNC(=O)OC(C)(C)C)C(=O)OC(C)(C)C)C(=O)OCc1ccccc1 | inconclusive: 23.1 µM [activator, partial curve, poor fit] | – |
